# Results as given in publication PMC4230938, “A High-Yield Co-Expression System for the Purification of an Intact Drs2p-Cdc50p Lipid Flippase Complex, Critically Dependent on and Stabilized by Phosphatidylinositol-4-Phosphate” (PLoS ONE, 2014).
# Residue numbers refer to the chain shown, from its start. Results are given in words; binding and its absence hold for the method and conditions named. For some of these results: In cells and extracts the contact can be indirect. Some binding calls cover weakened binding; strength is not graded here. Where a sequence is shown, tags or fusion partners need not be part of it.
# B1: N-terminally His10-tagged Cdc50p (with TEV cleavage site) (protein, UniProt P25656 1-391)
# chain: MVSLFKRGKAPPLTKEGPTSKKPPNTAFRQQRLKAWQPILSPQSVLPLLIFVACIFTPIGIGLIVSATKVQDLTIDYSHCDTKASTTAFEDIPKKYIKYHFKSKVENKPQWRLTENENGEQSCELQFEIPNDIKKSIFIYYKITNFYQNHRRYVQSFDTKQILGEPIKKDDLDTSCSPIRSREDKIIYPCGLIANSMFNDTFSQVLSGIDDTEDYNLTNKHISWSIDRHRFKTTKYNASDIVPPPNWMKKYPDGYTDENLPDIHTWEEFQVWMRTAAFPKFYKLTLKNESASLPKGKYQMNIELNYPISLFGGTKSFVLTTNGAIGGRNMSLGVLYLIVAGLCALFGIIFLVKLIFQPRAMGDHTYLNFDDEENEDYEDVHAENTTLREIL
# modifications: glycosylated (Cdc50p(g))
# B2: Cdc50p, tag-free after TEV cleavage (natural protein, S. cerevisiae, UniProt P25656 1-391, looked up)
# chain: B1 chain
# modifications: glycosylated
# notes: Cdc50p, accessory subunit of Drs2p; recombinant non-glycosylated mass 45,136 Da including the linker glycines; also called glycosylated Cdc50p; source: S. cerevisiae W303.1b/GAL4, co-expressed with Drs2p, purified with it (streptavidin-Sepharose, TEV elution, Ni2+-TED; SEC); not shown: His10, N-terminal, cleaved
# Assays:
# [1] = biological target: T1, Drs2p^D560N variant (N-terminally Bad-tagged) (S. cerevisiae) (UniProt P39524); assay: pull-down; Bad-tagged Drs2p from DDM-solubilized yeast P3 membranes held on streptavidin-Sepharose, 2 h at 4°C, SSR buffer (50 mM Mops-Tris pH 7, 100 mM KCl, 20% glycerol, 5 mM MgCl2), washes with 0.5 mg/mL DDM and 0.025 mg/mL POPS; Histidine probe blot of the resin, Coomassie gel of the TEV eluate
# T1 sequence (chain, biotin on the Bad tag): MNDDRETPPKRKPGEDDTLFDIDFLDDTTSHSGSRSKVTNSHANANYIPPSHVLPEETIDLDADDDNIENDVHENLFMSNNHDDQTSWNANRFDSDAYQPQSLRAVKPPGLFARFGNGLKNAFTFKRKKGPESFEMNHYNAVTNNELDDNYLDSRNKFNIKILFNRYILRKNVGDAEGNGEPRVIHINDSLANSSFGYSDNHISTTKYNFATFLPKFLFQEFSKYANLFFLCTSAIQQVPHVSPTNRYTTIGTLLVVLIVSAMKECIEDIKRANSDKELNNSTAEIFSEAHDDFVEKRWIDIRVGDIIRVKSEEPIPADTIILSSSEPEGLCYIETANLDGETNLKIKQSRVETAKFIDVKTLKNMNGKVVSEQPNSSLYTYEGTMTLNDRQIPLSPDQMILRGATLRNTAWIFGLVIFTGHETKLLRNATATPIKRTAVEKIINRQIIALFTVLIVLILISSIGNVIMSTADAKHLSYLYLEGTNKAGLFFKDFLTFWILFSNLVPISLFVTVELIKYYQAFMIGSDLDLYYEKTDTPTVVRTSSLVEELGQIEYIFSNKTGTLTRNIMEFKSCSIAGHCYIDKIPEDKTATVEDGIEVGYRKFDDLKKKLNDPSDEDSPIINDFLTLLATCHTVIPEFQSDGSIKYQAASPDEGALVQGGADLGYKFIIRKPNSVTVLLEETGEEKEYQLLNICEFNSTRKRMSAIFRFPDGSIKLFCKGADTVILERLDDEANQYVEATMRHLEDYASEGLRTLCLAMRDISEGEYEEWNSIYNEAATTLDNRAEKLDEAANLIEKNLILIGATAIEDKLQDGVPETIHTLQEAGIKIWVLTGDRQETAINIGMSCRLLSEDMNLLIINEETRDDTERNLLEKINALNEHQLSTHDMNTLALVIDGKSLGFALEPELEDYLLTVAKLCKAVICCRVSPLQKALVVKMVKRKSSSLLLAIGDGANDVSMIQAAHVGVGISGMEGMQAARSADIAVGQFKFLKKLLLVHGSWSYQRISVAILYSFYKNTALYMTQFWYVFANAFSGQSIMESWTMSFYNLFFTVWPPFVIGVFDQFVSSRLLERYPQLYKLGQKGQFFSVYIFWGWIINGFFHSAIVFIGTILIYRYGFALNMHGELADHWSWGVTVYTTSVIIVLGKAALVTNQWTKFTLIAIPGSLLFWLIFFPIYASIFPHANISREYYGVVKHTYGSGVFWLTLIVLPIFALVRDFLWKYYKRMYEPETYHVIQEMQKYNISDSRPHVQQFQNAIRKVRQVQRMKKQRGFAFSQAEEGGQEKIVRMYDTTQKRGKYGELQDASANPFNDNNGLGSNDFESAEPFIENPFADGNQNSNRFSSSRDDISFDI
# [2] = biological target: T2, Drs2p^E342Q variant (N-terminally Bad-tagged) (S. cerevisiae) (UniProt P39524); assay: as above
# T2 sequence (chain, biotin on the Bad tag): T1 sequence (chain, biotin on the Bad tag) with E342Q, N560D
# [3] = biological target: T3, N-terminally Bad-tagged Drs2p (S. cerevisiae) (UniProt P39524); assay: as above
# T3 sequence (chain, biotin on the Bad tag): T1 sequence (chain, biotin on the Bad tag) with N560D
# [4] = biological target: T4, Drs2p, tag-free after TEV cleavage (S. cerevisiae, UniProt P39524 1-1355); assay: SEC; streptavidin-purified, Ni2+-TED-treated, concentrated complex on a TSK-3000SW column, 1 mL/min, SSR buffer without glycerol with 0.5 mg/mL DDM and 0.025 mg/mL POPS; fractions on SDS-PAGE; both purified
# T4 construct: Drs2p, yeast P4-ATPase; theoretical mass of the recombinant protein 154,050 Da; also called purified Drs2p; source: S. cerevisiae W303.1b/GAL4, co-expressed with Cdc50p, purified (streptavidin-Sepharose, TEV elution, Ni2+-TED; SEC); not shown: Bad (Biotin Acceptor Domain), N-terminal, cleaved
# T4 sequence (looked up): T1 sequence (chain, biotin on the Bad tag) with N560D
Binder,binding [1],binding [2],binding [3],binding [4]
B1,binds,binds,binds,
B2,,,,binds
